We go through 1 substance from publication PMC5013389.

By UniProt entry, the sequences of proteins in these tests, tags left out.
UniProt Q96RU7: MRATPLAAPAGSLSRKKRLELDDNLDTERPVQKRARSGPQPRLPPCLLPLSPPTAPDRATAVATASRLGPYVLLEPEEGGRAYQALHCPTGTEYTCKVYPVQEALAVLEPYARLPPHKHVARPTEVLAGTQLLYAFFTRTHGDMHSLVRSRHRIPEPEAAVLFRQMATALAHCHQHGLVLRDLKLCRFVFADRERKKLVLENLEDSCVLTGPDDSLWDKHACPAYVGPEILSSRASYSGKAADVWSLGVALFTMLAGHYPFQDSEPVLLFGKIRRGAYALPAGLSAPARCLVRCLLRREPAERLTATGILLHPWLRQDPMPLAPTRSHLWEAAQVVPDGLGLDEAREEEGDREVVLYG
UniProt O14733: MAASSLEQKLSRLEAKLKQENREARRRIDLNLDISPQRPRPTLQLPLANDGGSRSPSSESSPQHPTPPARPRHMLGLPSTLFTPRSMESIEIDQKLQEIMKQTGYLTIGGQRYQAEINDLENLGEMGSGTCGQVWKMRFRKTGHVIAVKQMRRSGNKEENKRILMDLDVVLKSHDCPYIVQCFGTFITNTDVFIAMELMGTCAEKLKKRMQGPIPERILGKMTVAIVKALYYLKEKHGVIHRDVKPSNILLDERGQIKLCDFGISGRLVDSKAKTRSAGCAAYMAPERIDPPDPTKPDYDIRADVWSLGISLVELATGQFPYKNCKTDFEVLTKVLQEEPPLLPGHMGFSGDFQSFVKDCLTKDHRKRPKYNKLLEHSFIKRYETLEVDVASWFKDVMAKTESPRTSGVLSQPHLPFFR

This assay deals with endogenous TRIB3 of HepG2 cells (human (endogenous in HepG2)) (UniProt Q96RU7). Briefly: co-IP; endogenous TRIB3 immunoprecipitated from HepG2 lysate with anti-TRIB3 (ab50516) on protein G-Sepharose, HEPES lysis buffer with 0.3% CHAPS, 1 h at 4 °C; MKK7 detected by Western blot; cells transfected with siRNA against TRIB1, TRIB2, TRIB3 or non-targeting control.

Results are given in words; binding and its absence hold for the method and conditions named. Binding seen in cells or lysates may run through a third protein. Some binding calls cover weakened binding; strength is not graded here.

As for “endogenous MKK7 of HepG2 cells (from UniProt O14733 1-419)”, the binding entry is recorded as “binds”.
